Binding data for two molecules are collected here from PMC4840434, “The interactome of Streptococcus pneumoniae and its bacteriophages show highly specific patterns of interactions among bacteria and their phages” (Scientific Reports, 2016).

Results are given in words; binding and its absence hold for the method and conditions named. Binding can be weak; no strength is given.

This assay deals with Cp-1 orf10, Connector protein (phage Cp-1 of S. pneumoniae). Description: two-hybrid; yeast two-hybrid array screen: Cp-1 and Dp-1 baits in pDEST32 against 1,704 S. pneumoniae TIGR4 ORF preys in pDEST22; strength by 3-AT up to 50 mM (3AT score = 3ATmax - 3ATbackground).

B1: SP_1881, glutamate racemase (protein, UniProt P63640 1-264)
chain: MDNRPIGFLDSGVGGLTVVRELMRQLPHEEIVYIGDSARAPYGPRPAEQIREYTWQLVNFLLTKDVKMIVIACNTATAVVWEEIKAQLDIPVLGVILPGASAAIKSSQGGKIGVIGTPMTVQSDIYRQKIHDLDPDLQVESLACPKFAPLVESGALSTSVTKKVVYETLRPLVGKVDSLILGCTHYPLLRPIIQNVMGPKVQLIDSGAECVRDISVLLNYFEINRGRDAGPLHHRFYTTASSQSFAQIGEEWLEKEIHVEHVEL
As to B1, the binding entry is given as “binds”.

B2: SP_1354, ribosomal protein L7/L12 (protein, UniProt P0A471 1-122)
chain: MALNIENIIAEIKEASILELNDLVKAIEEEFGVTAAAPVAVAAADAADAGAAKDSFDVELTSAGDKKVGVIKVVREITGLGLKEAKELVDGAPALVKEGVATAEAEEIKAKLEEAGASVTLK
Take B2: the binding entry is “binds”.
